According to PubChem BioAssay AID1307 (SRMLSC, 2008):
In all, about 1,200 compounds went through this assay and fewer than 10 were called active.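 How the source made its calls: active means inhibition reaching a set limit at one or more tested concentrations; inactive means inhibition under that limit at every dose.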 The list shows a part of the results. Potency and affinity values are given separately.

Assay: RAM pathway signaling blockade in S. cerevisiae – dose response (AID 1307);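 further: 0% = DMSO vehicle wells and 100% = 10 µM 1-NA-PP1 control; higher inhibition means more yeast growth since RAM block rescues cells from 5-FOA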
Conditions: S. cerevisiae RAM network URA3 reporter, 5-FOA growth OD615, stronger effect = higher value, yeast express analog-sensitive mutant Cbk1 kinase; at 100 µM unless noted

Max inhibition, inactive:
CCOC(=O)C1=C(NC(=S)NC(=O)c2ccccc2)c2ccccc2CC1C(C)C (stereo unspecified) 1.65%, CC1CCN(C(=S)c2ccc(-c3ccc(Cl)cc3Cl)o2)CC1 6.95% [at 50 µM], CCOCCSc1nc2c(c(-c3cccs3)c1C#N)CC/C2=C/c1cccs1 5.76% [at 0.196 µM], O=C(Nc1ccccc1Cc1ccccc1)c1oc2ccccc2c1COc1ccccc1 3.76%, O=C(NCc1ccccc1)[C@H]1C[C@@H]1[C@H](NP(=O)(c1ccccc1)c1ccccc1)c1ccccc1 5.67%, Cc1ccc2sc(NC(=O)c3ccc(N4C(=O)CCC4=O)cc3)nc2c1C 9.33%, CCOC(=O)/C(=C/c1ccc(N2CCC(c3ccccc3)=N2)cc1)C(C)=O 3.75%, CCOC(=O)c1c(NC(=O)CSc2nnc(Cc3ccccc3)o2)sc(C)c1C 4.8% [at 50 µM], Oc1c(Cl)cc(Cl)c(Cl)c1Cc1c(O)c(Cl)cc(Cl)c1Cl 3.42% [at 0.391 µM], Cc1ccc(C(=O)/C=C/c2cn(CC(O)CN3CCOCC3)c3ccccc23)cc1 (stereo unspecified) 4.08% [at 50 µM], CCCCC(=O)O[C@H]1CC[C@H]2[C@@H]3CCc4cc(O)ccc4[C@H]3CC[C@]12C 4.49%, C=CCO/N=C(/C)c1c(O)c(CC)c(-c2ccccc2)n(-c2ccccc2)c1=O 2.56% [at 0.391 µM], Cc1ccc(NN=C2c3ccccc3-c3ccccc32)cc1 6.62% [at 50 µM], COC(=O)CCSc1cc([N+](=O)[O-])cc2c1c(C1OCCO1)nn2-c1ccccc1 3.76%, O=S(=O)(c1ccccc1)N1CCN=C1SCc1ccc(Cl)c(Cl)c1 1.93% [at 0.782 µM], Cc1ccc(S(=O)(=O)N2CCC(=O)N(C(COCc3cccc(C)c3)Cc3ccccc3)CC2)cc1 (stereo unspecified) 1.88%, Cc1ccc(N=Nc2c(C)[nH]n(-c3ccccc3)c2=O)cc1 1.92% [at 50 µM], O=C(COC(=O)CC(c1ccccc1)c1ccccc1)NCc1ccc(Cl)cc1 1.55% [at 0.196 µM], CCOC(=O)C1=C(N)OC2=C(C(=O)CC(C)(C)C2)C1c1ccc(C)s1 (stereo unspecified) 2.43% [at 0.196 µM], C=C(C)C1CC=C(C)/C(=N\NC(=S)Nc2ccc(C)cc2)C1 (stereo unspecified) 2.06% [at 50 µM], C=CCSc1nnc(CCCCCN2C(=O)c3cccc4cccc(c34)C2=O)o1 6.81%, CCCCN(CCCC)S(=O)(=O)c1ccc(NC(=O)c2cccs2)cc1 1.28% [at 25 µM], Cc1ccc(NC(=O)CNC(=O)c2cccs2)cc1S(=O)(=O)Nc1ccc(Cl)cc1 6.32%, CCN(CC)c1nc(SCCOC(=O)Nc2ccccc2)nc(N(CC)CC)n1 9.53%, CC(C)(C)OC(=O)NCCCCCNC(=O)c1[nH]cnc1C(=O)N[C@@H](Cc1ccccc1)C(=O)OCc1ccccc1 6.61%, CCOC(=O)c1ccc(NC(=O)Nc2ccc3c4c(cccc24)C(=O)N3CC)cc1 3.19%, CCSc1ccc(-c2nn(-c3ccccc3)cc2/C=C(/C#N)C(=O)NCCCOC)cc1 13%, O=C(Cn1cc(C(=O)c2ccco2)c2ccccc21)NC1CCCCC1 3.76% [at 0.391 µM], CCCC(=O)C1=C(O)C(C(=O)OC)C(C)(C)CC1=Nc1cccc2ccccc12 (stereo unspecified) 2.93%, COc1ccc(/C=C2\SC(=S)N(C(Cc3ccccc3)C(=O)O)C2=O)cc1 (stereo unspecified) 4.2% [at 50 µM], CCc1ccc(NC(=O)Cn2c(SC)nc3ccccc32)cc1 1.82% [at 0.196 µM], CC(C)SCCCCOc1ccc2ccccc2c1 3.86% [at 12.5 µM], CCOc1ccc(NC(=O)CSc2nnc(-c3ccccc3Cl)n2Cc2ccco2)cc1 1.32% [at 0.782 µM], Clc1ccc(-c2nnc(CSc3nnc(-c4cccs4)o3)o2)cc1 2.52% [at 3.125 µM], CC(=O)N(CCC(c1ccccc1)c1ccco1)Cc1cccs1 (stereo unspecified) 1.77% [at 0.391 µM], COc1ccccc1/C=C(/C(=O)OCC(=O)Nc1ccccc1C(C)C)c1ccccc1 1.89%, O=C1c2ccccc2C(=O)N1CCCCN(C(=O)c1ccc(Cl)s1)c1ccc(Cl)cc1 2.52% [at 50 µM], COc1cccc(CSc2nc3sc(C)c(C)c3c(=O)n2Cc2ccco2)c1 5.58% [at 50 µM], CCCCN1C(=O)/C(=C/C=C2/CC(C)(C)CN2C)SC1=S 2.79% [at 50 µM], Cc1ccc(N(CCCCN2C(=O)c3ccccc3C2=O)C(=O)c2cccs2)cc1 4.25%, CCOC(=O)C1=C(Cc2ccc(OC)cc2)C(=O)c2ccccc2C1=O 3.39% [at 0.391 µM], Cc1ccc(S(=O)(=O)NCc2ccc3c(c2)cc(C)n3C)cc1 5.29%, N#Cc1nc(Cc2cccc3ccccc23)oc1N1CCCCC1 2.73% [at 3.125 µM], O=S(=O)(Nc1ccc(N=Nc2ccc(O)c3ccccc23)cc1)c1ccccc1 1.77%, O=C(CSc1nc2ccccc2s1)CSc1nc2ccccc2s1 5.31%, Cc1ccccc1OCC(O)Cn1c2ccccc2c2ccccc21 (stereo unspecified) 6.24%, COc1ccc(CCNC(=O)c2ccc(Cl)c(S(=O)(=O)N(C)c3ccccc3)c2)cc1 2.74% [at 6.25 µM], N#Cc1nc(-c2ccc(OCc3ccccc3)cc2)oc1NCc1ccco1 18.3%, CCN1C(=O)C(CC(=O)Nc2ccc(OC)cc2)N(CCc2ccc(F)cc2)C1=S (stereo unspecified) 2.82%, CCCCOc1ccc(C(=O)N/C(=C\c2cccc([N+](=O)[O-])c2)C(=O)OCc2ccco2)cc1 4.99% [at 50 µM], Cc1ccc(Cc2nnc3n(-c4cccc(C)c4)nc(C(=O)c4ccccc4)n3c2=O)cc1 3.36% [at 50 µM]
